We go through 1 substance from article PMC11316107.

Amino acid sequences for entries named in this document (tags omitted).
UniProt P63208: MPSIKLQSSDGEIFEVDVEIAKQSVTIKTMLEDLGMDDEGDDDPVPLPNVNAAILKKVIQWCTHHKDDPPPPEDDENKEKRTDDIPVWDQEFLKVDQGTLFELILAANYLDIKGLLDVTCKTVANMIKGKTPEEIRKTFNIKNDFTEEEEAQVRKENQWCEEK

No constants are given. Whether binding was seen depends on the method and setting. In cells and extracts the contact can be indirect. Some entries that bind do so weakly or less than the wild type. Tags and fused reporters may be left off the sequences shown.

The target of this assay is T1, FLAG-FBXL4 (human) (UniProt Q9UKA2).
T1 sequence: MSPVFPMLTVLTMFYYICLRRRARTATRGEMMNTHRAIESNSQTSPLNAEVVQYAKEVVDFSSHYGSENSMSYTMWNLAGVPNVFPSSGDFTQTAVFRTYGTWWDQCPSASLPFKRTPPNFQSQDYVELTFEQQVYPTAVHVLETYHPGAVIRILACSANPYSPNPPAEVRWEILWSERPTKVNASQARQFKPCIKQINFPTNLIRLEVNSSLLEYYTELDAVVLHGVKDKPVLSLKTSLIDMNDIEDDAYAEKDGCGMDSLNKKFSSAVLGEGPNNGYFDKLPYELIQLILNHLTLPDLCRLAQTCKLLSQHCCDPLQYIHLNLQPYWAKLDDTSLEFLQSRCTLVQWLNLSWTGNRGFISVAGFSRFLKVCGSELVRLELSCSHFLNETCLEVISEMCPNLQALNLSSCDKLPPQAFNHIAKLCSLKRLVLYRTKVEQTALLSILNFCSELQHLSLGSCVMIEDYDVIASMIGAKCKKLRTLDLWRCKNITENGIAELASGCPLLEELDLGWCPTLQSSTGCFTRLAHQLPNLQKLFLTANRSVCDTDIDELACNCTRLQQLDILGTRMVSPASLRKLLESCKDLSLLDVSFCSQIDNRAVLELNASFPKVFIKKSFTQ
The experiment in a line: co-IP; FLAG-FBXL4 as bait on anti-FLAG beads from transfected 293T or 293T PPTC7 KO cells; MLN4924 24 h where indicated; Tris-Triton lysis buffer; immunoblot.

For the substance “SKP1 (endogenous) (from UniProt P63208 1-163)”, the binding result is reported as “binds”.
